Measured values published in PMC8962522, “Direct interaction of TrkA/CD44v3 is essential for NGF-promoted aggressiveness of breast cancer cells” (Journal of Experimental & Clinical Cancer Research : CR, 2022).
Results are given in words; binding and its absence hold for the method and conditions named.

Chains of the proteins cited; added tags and fusions are not shown. Residues count along the entry.
UniProt P04629, residues 34-423: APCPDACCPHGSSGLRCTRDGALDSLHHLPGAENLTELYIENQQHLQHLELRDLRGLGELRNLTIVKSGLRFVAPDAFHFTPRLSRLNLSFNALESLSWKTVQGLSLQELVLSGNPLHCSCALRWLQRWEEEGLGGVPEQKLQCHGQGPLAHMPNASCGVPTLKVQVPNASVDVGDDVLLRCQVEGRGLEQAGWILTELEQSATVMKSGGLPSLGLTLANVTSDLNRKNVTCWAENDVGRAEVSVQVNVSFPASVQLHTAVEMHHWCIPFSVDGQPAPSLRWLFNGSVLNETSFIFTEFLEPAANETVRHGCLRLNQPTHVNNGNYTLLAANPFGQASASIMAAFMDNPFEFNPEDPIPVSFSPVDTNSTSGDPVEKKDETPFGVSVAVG

Molecular target: TrkA-His tagged extracellular domain protein (Ala 34-Gly423) (UniProt P04629)
Assay: MST; binding check: peptides and TrkA-His labelled with RED-Tris-NTA; PBS-T; high MST power, 100% LED; both purified

| Binder | binding |
| --- | --- |
| KSTSSNTISAG [CD44v3 mimetic peptide 1] | no binding |
| WEPNEENEDE [CD44v3 mimetic peptide 2] | no binding |
